# Some of the results follow. Values are raw readings; no control value is given beside them.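 In the initial screen, polymyxin B was used at a concentration that permeabilizes Salmonella's outer membrane but not its inner membrane. Maximum growth was set by DMSO wells with or without polymyxin B. Since plates varied, data were ranked per plate, and compounds giving the lowest OD600 advanced as hits.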
# System: Salmonella enterica serovar Typhimurium SL1344
# Assay: bacterial growth OD600 after 18 h with compound and polymyxin B; higher = more bacterial growth (less inhibition)
# Conditions: 50 µM, Mueller-Hinton broth
SMILES,bacterial growth OD600 (polymyxin B 1 µg/mL),bacterial growth OD600 (polymyxin B 0.75 µg/mL)
CCOC(=O)C1(CC2CC2)CCN(Cc2ccccc2C(F)(F)F)CC1,0.859,
Cc1ccc(CNC(C)c2cnc(N(C)C3CCCCC3)nc2C)o1 (stereo unspecified),,0.556
COC(=O)C1CCCCN1C(=O)c1c(OC)cc(=O)n2c1CCN(Cc1cccc(F)c1)CC2 (stereo unspecified),,0.823
COc1ccc(OC2CCN(Cc3nc(-c4ccc(Cl)cc4)oc3C)CC2)cc1,,0.126
CSc1ccc(CN2CCC(Oc3ccccc3C(=O)N3CCCC3)CC2)cc1,1.09,
CCN(CC1CCCN(CCc2cccc(F)c2)C1)C(=O)c1cscn1 (stereo unspecified),1.12,
CCc1cc(CNC(=O)c2ccc(OC3CCN(C(=O)C4CC4)CC3)cc2)on1,1.07,
O=C(CCc1cccc(Cl)c1)NC1CCCN(Cc2ccccc2F)C1 (stereo unspecified),0.72,
CCCCNC(=O)c1cn(C(C)C)cc(C(=O)N2CCN(C3CCCC3)CC2)c1=O,,1.03
Cc1cc(C(=O)N2CCCC(Nc3ccc(F)cc3)C2)n(C)n1 (stereo unspecified),0.811,
COc1ccc(OCc2cc(C(=O)N(C)CC3CCCCO3)n[nH]2)c(Cl)c1 (stereo unspecified),0.898,
CN(CC1CCCO1)c1ccc(C(=O)N2CCC(CCn3cccn3)CC2)cn1 (stereo unspecified),0.99,
C[C@@H]1CN(C2(C(=O)NCCc3cnccn3)Cc3ccccc3C2)C[C@H](C)O1,1.15,
O=C1CCCN1CC(=O)N1CCCC(CCc2cccc(F)c2)C1 (stereo unspecified),,0.786
Cc1cccc(CNC(=O)c2cc(Cn3c(C)nc4ccccc43)on2)n1,1.13,
O=C1CCC(CCC(=O)N2CCCC(OCc3ccccc3)C2)(Cc2ccccc2)N1 (stereo unspecified),,0.861

SMILES,bacterial growth OD600 (polymyxin B 1 µg/mL),bacterial growth OD600 (polymyxin B 0.75 µg/mL)
CC(C)N1CCN(CC2(O)CCCN(CC3CCCCC3)C2=O)CC1 (stereo unspecified),0.916,
O=C(NCCCN1CCOCC1)c1ccc2oc(Cc3ccc(Cl)cc3)nc2c1,,0.693
COc1ccc(-c2nn(-c3ccccc3C)cc2CN2CCNC(=O)CC2)cc1F,0.758,
Cc1nc(CCNC(=O)C2CCC(=O)N(Cc3ccccn3)C2)nc2c1CCCC2 (stereo unspecified),1.11,
Cc1ncc(CNC2CC(=O)N(Cc3cccc4ccccc34)C2)n1C (stereo unspecified),0.958,
CCC1(C2CCN(Cc3ccc(OC)cc3O)CC2)NC(=O)N(CCc2scnc2C)C1=O (stereo unspecified),,0.865
CCCn1cc(CN2C[C@H]3OC(=O)N(C4CCCC4)[C@H]3C2)c(C)n1,,0.787
COc1ccc(CC2(CCC(=O)N(C)Cc3ccc(-n4cccn4)cc3)CCC(=O)N2)c2ccccc12 (stereo unspecified),,0.764
CCO[C@H]1[C@H](NC(=O)c2cccnc2)c2ccccc2C12CCN(C(=O)c1cnc(C)cn1)CC2,,0.884
O=C(NCC1CCCN(Cc2nccs2)C1)c1cccc2ccccc12 (stereo unspecified),0.975,
O=C(c1csnn1)N1CCC(C2CCN(c3ncccn3)CC2)C1 (stereo unspecified),1.02,
COc1ccc(-n2ncc(C(C)NS(=O)(=O)c3cccc4nsnc34)c2C)cc1 (stereo unspecified),,0.002
Oc1ccc(CN2CCC3(CCCN(Cc4ccc(F)cc4)C3)C2)cc1 (stereo unspecified),0.948,
COc1cccc(CN2C[C@@H]3C[C@@H](c4ccc(C)s4)N4CCC[C@@]34C2=O)c1,,0.777
CCN1CCN(C(=O)c2cc(COc3ccc4c(c3)CCCC4)on2)[C@@H](C)C1=O,0.667,

# Nothing new here: entries from further up.
SMILES,bacterial growth OD600 (polymyxin B 1 µg/mL),bacterial growth OD600 (polymyxin B 0.75 µg/mL)
O=C1CCC(CCC(=O)N2CCCC(OCc3ccccc3)C2)(Cc2ccccc2)N1 (stereo unspecified),,0.861
CC(C)N1CCN(CC2(O)CCCN(CC3CCCCC3)C2=O)CC1 (stereo unspecified),0.916,
